Assay [1] deals with T1, normal human PABPN1 (poly(A)-binding protein nuclear 1), homopolymer of 10 alanine residues, His-tagged, biotinylated (human) (UniProt Q86U42).
T1 sequence (chain, biotin (EZ-Link PEO-Maleimide Activated Biotin)): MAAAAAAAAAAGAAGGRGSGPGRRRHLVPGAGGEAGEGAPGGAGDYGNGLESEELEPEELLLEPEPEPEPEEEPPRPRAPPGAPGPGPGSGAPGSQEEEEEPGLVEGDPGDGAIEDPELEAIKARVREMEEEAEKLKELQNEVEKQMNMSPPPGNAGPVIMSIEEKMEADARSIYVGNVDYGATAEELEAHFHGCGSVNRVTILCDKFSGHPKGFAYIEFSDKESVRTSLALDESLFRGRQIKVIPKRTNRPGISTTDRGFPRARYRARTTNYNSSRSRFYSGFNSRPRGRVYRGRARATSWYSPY
In words: pull-down; biotinylated His-PABPN1 (2 µg) on streptavidin-agarose beads, incubated with RNase A-treated extracts of C2 myoblasts and myotubes, 4 h at 4°C, 20 mM Tris pH 8.0, 200 mM KCl, 10% glycerol; bound proteins detected by immunoblot; only the target purified. On the technique in general: In western blotting, separated proteins are transferred to a membrane and probed.

For assay [2], the target named is T2, expanded human PABPN1, tract of 17 alanine residues, His-tagged, biotinylated (human) (UniProt Q86U42).
T2 sequence (chain, biotin (EZ-Link PEO-Maleimide Activated Biotin)): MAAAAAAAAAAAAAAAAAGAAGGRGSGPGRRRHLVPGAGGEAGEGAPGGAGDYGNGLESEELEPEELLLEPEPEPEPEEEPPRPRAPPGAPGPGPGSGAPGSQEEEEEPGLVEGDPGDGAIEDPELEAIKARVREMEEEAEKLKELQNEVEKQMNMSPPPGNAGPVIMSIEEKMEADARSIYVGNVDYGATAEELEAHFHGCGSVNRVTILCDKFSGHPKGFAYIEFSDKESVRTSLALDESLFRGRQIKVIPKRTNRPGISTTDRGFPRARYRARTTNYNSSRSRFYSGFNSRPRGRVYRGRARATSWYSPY
Described as above.

Results are given in words; binding and its absence hold for the method and conditions named. In cells and extracts the contact can be indirect. Some results given as binding are weak or reduced against the parent protein; the word gives no strength. Sequences can lack the tags named with a protein.

B1: Ski-interacting protein (SKIP) (protein, UniProt Q9CSN1 1-536)
chain: MALTSFLPAPTQLSQDQLEAEERARSQRSLQTSLVSSRREPPPYGYRKGWIPRLLEDFGDGGAFPEIHVAQYPLDMGRKKKMSNALAIQVDPEGKIKYDAIARQGQSKDKVIYSKYTDLVPKEVMNADDPDLQRPDEEAIKEITEKTRVALEKSVSQKVAAAMPVRAADKLAPAQYIRYTPSQQGVAFNSGAKQRVIRMVEMQKEPMEPPRFKINKKIPRGPPSPPAPVMHSPSRKMTVKEQQEWKIPPCISNWKNAKGYTIPIDKRLAADGRGLQTVHINENFAKLAEALYIADRKAREAVEMRAQVERKMAQKEKEKHEEKLREMAQKARERRAGIKTHVEKEDGEARERDEIRHDRRKERQHDRNLSRAAPDKRSKLQRNENRDISEVIALGVPNPRTSNEVQYDQRLFNQSKGMDSGFAGGEDEIYNVYDQAWRGGKDMAQSIYRPSKNLDKDMYGDDLEARIKTNRFVPDKEFSGSDRKQRGREGPVQFEEDPFGLDKFLEEAKQHGGSKRPSDSSRPKEHEHEGKKRRKE
For the molecule B1, the binding entry in assay [1] and in assay [2] was “binds” each time.

Source of the values: article PMC2712759, “Hsp70 Chaperones and Type I PRMTs Are Sequestered at Intranuclear Inclusions Caused by Polyalanine Expansions in PABPN1” (PLoS ONE, 2009).
